Source: article PMC11451547
Results are given in words; binding and its absence hold for the method and conditions named. Binding seen in cells or lysates may run through a third protein. Some binding calls cover weakened binding; strength is not graded here. Tags and fused reporters may be left off the sequences shown.

Protein sequences, listed by entry. Tags and fused reporters are not part of them.
UniProt Q9NQG6: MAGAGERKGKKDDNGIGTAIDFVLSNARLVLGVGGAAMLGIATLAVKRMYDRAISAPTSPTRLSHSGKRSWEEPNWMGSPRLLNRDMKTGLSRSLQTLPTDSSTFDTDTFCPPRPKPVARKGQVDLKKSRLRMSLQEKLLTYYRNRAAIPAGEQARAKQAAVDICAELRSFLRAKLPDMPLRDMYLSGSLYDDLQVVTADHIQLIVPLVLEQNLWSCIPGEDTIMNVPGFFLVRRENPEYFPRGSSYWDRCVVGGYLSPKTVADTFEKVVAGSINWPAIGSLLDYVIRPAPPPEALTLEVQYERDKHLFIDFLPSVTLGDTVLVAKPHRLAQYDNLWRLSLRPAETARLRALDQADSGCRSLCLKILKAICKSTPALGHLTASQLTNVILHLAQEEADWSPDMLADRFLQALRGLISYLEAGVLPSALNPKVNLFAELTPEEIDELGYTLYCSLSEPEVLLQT

Columns and labels:
[1] = molecular target: T1, GFP-MFF K151R (pAcGFP-tagged human MFF isoform 1, K151R) (human) (UniProt Q9GZY8); test: co-IP; GFP-Trap immunoprecipitation of GFP-MFF (WT or K151R) from HEK293T cells, vehicle or 10 uM CCCP for 1 hour before lysis; lysis in 50 mM tris pH 7.5, 150 mM NaCl, 1% Triton X-100, 20 mM NEM, 0.1% SDS; blotted for HA, endogenous MiD51 or DRP1
T1 sequence: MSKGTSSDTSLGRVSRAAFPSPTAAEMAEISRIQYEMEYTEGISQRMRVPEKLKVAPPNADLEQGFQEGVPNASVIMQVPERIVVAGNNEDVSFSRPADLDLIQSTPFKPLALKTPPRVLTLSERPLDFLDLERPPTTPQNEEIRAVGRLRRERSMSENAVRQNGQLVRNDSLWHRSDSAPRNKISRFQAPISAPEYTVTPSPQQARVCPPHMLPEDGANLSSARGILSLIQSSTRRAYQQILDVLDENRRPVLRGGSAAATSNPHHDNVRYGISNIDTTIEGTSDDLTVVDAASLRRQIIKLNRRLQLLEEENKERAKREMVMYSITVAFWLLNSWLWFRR

[2] = molecular target: T2, GFP-MFF wild type (pAcGFP-tagged human MFF isoform 1) (human) (UniProt Q9GZY8); test: as above
T2 sequence: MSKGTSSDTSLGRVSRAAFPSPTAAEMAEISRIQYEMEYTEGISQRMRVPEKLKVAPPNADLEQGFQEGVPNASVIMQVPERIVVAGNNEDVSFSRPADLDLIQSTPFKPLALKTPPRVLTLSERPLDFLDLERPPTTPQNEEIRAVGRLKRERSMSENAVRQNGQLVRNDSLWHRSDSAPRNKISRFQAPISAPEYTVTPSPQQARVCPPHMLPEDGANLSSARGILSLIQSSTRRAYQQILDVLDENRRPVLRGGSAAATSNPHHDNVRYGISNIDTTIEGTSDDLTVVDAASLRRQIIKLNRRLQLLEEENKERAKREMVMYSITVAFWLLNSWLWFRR

[3] = molecular target: T3, CFP-MFF-2SA (double phospho-null S155A/S172A MFF, human isoform 1) (human) (UniProt Q9GZY8); test: co-IP; GFP-Trap immunoprecipitation of CFP-MFF (WT or mutants) from transfected HEK293T lysate, basal conditions; lysis in 20 mM tris pH 7.4, 137 mM NaCl, 1% Triton X-100, 10% glycerol, 25 mM beta-glycerophosphate, 2 mM Na-pyrophosphate, 20 mM NEM, 2 mM EDTA; beads 60 min at 4°C; blotted for endogenous DRP1, endogenous MiD49 or HA
T3 sequence: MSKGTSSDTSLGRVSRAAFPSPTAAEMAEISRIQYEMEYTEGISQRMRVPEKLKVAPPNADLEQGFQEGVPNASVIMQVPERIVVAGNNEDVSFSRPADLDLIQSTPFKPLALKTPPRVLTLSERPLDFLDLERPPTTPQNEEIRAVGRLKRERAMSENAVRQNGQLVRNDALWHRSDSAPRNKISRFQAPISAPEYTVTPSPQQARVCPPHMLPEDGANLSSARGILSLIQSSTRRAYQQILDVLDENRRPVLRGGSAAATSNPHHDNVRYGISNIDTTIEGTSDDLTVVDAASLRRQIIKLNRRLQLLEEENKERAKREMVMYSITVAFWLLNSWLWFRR

[4] = molecular target: T4, CFP-MFF wild type (mitochondrial fission factor, human isoform 1) (human) (UniProt Q9GZY8); test: as above
T4 sequence: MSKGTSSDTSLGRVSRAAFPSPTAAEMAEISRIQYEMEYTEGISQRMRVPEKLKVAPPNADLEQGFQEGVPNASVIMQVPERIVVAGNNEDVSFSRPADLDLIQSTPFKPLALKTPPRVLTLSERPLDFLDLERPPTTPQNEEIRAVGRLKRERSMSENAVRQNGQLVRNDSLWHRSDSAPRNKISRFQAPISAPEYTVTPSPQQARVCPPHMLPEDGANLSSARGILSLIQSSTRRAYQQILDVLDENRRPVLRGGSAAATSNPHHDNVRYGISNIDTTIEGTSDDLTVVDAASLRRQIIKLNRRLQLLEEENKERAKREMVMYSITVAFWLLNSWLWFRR

[5] = molecular target: T5, CFP-MFF K151R (non-SUMOylatable MFF, human isoform 1) (human) (UniProt Q9GZY8); test: as above
T5 sequence: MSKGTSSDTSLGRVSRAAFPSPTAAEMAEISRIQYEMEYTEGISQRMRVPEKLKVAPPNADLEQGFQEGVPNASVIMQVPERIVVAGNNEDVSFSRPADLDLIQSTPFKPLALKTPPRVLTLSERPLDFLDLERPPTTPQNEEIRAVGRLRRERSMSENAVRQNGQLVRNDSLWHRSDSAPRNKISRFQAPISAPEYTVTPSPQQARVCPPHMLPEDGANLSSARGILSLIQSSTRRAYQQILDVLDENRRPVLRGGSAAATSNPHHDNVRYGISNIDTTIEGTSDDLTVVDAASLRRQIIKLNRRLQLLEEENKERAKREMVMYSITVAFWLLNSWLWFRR

[6] = molecular target: T6, CFP-MFF-2SD (double phospho-mimetic S155D/S172D MFF, human isoform 1) (human) (UniProt Q9GZY8); test: as above
T6 sequence: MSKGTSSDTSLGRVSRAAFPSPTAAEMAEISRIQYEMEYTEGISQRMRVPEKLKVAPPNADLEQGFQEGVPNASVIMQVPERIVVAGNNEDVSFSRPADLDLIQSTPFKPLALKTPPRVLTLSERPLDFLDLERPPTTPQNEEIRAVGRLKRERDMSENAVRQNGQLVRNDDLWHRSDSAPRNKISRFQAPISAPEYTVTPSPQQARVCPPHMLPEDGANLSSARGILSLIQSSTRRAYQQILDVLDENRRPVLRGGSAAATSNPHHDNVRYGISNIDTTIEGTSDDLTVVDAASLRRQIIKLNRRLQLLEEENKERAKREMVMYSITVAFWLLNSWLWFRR

Measured: binding

MiD51-HA (mitochondrial dynamics protein of 51 kDa, HA-tagged) (from UniProt Q9NQG6 1-463)
binds: all assays above

mitochondrial dynamics protein of 51 kDa (MiD51), endogenous (from UniProt Q9NQG6 1-463)
binds: [1] | [2]

B1: MiD49-HA (mitochondrial dynamics protein of 49 kDa, HA-tagged) (protein, UniProt Q96C03 1-454)
chain: MAEFSQKRGKRRSDEGLGSMVDFLLANARLVLGVGGAAVLGIATLAVKRFIDRATSPRDEDDTKADSWKELSLLKATPHLQPRPPPAALSQPVLPLAPSSSAPEGPAETDPEVTPQLSSPAPLCLTLQERLLAFERDRVTIPAAQVALAKQLAGDIALELQAYFRSKFPELPFGAFVPGGPLYDGLQAGAADHVRLLVPLVLEPGLWSLVPGVDTVARDPRCWAVRRTQLEFCPRGSSPWDRFLVGGYLSSRVLLELLRKALAASVNWPAIGSLLGCLIRPSMASEELLLEVQHERLELTVAVLVAVPGVDADDRLLLAWPLEGLAGNLWLQDLYPVEAARLRALDDHDAGTRRRLLLLLCAVCRGCSALGQLGRGHLTQVVLRLGEDNVDWTEEALGERFLQALELLIGSLEQASLPCHFNPSVNLFSSLREEEIDDIGYALYSGLQEPEGLL
binds: [3] | [5] | [6]

B2: mitochondrial dynamics protein of 49 kDa (MiD49), endogenous (protein, UniProt Q96C03 1-454)
chain: MAEFSQKRGKRRSDEGLGSMVDFLLANARLVLGVGGAAVLGIATLAVKRFIDRATSPRDEDDTKADSWKELSLLKATPHLQPRPPPAALSQPVLPLAPSSSAPEGPAETDPEVTPQLSSPAPLCLTLQERLLAFERDRVTIPAAQVALAKQLAGDIALELQAYFRSKFPELPFGAFVPGGPLYDGLQAGAADHVRLLVPLVLEPGLWSLVPGVDTVARDPRCWAVRRTQLEFCPRGSSPWDRFLVGGYLSSRVLLELLRKALAASVNWPAIGSLLGCLIRPSMASEELLLEVQHERLELTVAVLVAVPGVDADDRLLLAWPLEGLAGNLWLQDLYPVEAARLRALDDHDAGTRRRLLLLLCAVCRGCSALGQLGRGHLTQVVLRLGEDNVDWTEEALGERFLQALELLIGSLEQASLPCHFNPSVNLFSSLREEEIDDIGYALYSGLQEPEGLL
binds: [3] | [4] | [5] | [6]
